Data taken from patent US20230338564A1 (Orum Therapeutics, Inc., priority 2020, published 2023).

Experiment: general procedure: solution-phase peptide synthesis; HATU/HOBT/DIEA
Details: late stage modification step, TFA salt

Substance: (2S)-2-[2-(2-aminoacetamido)acetamido]-N-([[(2-[2-chloro-4-[([[2-(2,6-dioxopiperidin-3-yl)-1-oxo-3H-isoindol-5-yl]methyl]carbamoyl)amino]phenyl]ethoxy)methyl]-carbamoyl]methyl)-3-phenylpropanamide; trifluoroacetic acid
- step yield: 79%
